# Laboratory results taken from patent US20090221683A1, “Combination of CXCR4 Antagonist and Morphogen to Increase Angiogenesis” (Caritas St.Elizabeth Medical Center of Boston, Inc, priority 2005, published 2009).
# Like-named read-outs stand apart in the source and are kept apart here.
# System: FVB mice with myocardial infarction
# Conditions: for HR (heart rate): mean ± SE
# Protocol: Eight-week old male FVB mice were anesthetized with sodium pentobarbital (50 mg/kg IP). The animals were intubated orally with a 22G IV catheter and artificially ventilated with a respirator (Harvard Apparatus). A left intercostal thoracotomy was performed and the ribs were retracted with 5-0 polypropylene sutures. After the pericardium was opened, the left anterior descending (LAD) branch of the left coronary artery was ligated proximal to the bifurcation between the LAD and the diagonal branch using 8-0 polypropylene sutures and visualized with a dissecting microscope. Positive end-expiratory pressure was applied to fully inflate the lungs, and the chest was closed with 7-0 polypropylene sutures. […] After physiological assessment at one, two and four weeks after MI, a subgroup of the mice were euthanized by intravenous administration of a lethal dose of pentobarbital.
# Transthoracic echocardiography (SONOS 5500, Hewlett Packard) was performed just before MI and one, two and four weeks after MI. Left ventricular diastolic (LVDd) and systolic (LVDs) dimensions and fractional shortening were measured at the mid-papillary muscle level. Hemodynamic measurements were obtained at two and four weeks after MI using a 1.0-French high-fidelity pressure catheter (Millar Instruments, Houston, Tex.) via the left carotid artery. LV systolic pressure and maximal positive (+dP/dt) and negative (−dP/dt) pressure development were recorded after stabilization of LV function and heart rate. Such methods can be used for study of the compositions and methods of the instant invention.
smiles,measurement,setting,value
"c1cc(CN2CCCNCCNCCCNCC2)ccc1CN1CCCNCCNCCCNCC1 [AMD-3100, 1,1′-[1,4-phenylene-bis(methylene)]-bis-1,4,8,11-tetraazacyclotetradecane]",HR (heart rate),1 week after MI,494 ± 24 bpm
same,HR (heart rate),2 weeks after MI,515 ± 16 bpm
same,HR (heart rate),4 weeks after MI,473 ± 26 bpm
same,HR (heart rate),Before MI (baseline),510 ± 26 bpm
same,difference in heart rate between AMD and control groups,after MI,no significant difference
